## Results of single-concentration screens

The chains behind the UniProt entries cited, without tags or fusion partners. Residues count along the entry.
UniProt I6X8D2, whole entry: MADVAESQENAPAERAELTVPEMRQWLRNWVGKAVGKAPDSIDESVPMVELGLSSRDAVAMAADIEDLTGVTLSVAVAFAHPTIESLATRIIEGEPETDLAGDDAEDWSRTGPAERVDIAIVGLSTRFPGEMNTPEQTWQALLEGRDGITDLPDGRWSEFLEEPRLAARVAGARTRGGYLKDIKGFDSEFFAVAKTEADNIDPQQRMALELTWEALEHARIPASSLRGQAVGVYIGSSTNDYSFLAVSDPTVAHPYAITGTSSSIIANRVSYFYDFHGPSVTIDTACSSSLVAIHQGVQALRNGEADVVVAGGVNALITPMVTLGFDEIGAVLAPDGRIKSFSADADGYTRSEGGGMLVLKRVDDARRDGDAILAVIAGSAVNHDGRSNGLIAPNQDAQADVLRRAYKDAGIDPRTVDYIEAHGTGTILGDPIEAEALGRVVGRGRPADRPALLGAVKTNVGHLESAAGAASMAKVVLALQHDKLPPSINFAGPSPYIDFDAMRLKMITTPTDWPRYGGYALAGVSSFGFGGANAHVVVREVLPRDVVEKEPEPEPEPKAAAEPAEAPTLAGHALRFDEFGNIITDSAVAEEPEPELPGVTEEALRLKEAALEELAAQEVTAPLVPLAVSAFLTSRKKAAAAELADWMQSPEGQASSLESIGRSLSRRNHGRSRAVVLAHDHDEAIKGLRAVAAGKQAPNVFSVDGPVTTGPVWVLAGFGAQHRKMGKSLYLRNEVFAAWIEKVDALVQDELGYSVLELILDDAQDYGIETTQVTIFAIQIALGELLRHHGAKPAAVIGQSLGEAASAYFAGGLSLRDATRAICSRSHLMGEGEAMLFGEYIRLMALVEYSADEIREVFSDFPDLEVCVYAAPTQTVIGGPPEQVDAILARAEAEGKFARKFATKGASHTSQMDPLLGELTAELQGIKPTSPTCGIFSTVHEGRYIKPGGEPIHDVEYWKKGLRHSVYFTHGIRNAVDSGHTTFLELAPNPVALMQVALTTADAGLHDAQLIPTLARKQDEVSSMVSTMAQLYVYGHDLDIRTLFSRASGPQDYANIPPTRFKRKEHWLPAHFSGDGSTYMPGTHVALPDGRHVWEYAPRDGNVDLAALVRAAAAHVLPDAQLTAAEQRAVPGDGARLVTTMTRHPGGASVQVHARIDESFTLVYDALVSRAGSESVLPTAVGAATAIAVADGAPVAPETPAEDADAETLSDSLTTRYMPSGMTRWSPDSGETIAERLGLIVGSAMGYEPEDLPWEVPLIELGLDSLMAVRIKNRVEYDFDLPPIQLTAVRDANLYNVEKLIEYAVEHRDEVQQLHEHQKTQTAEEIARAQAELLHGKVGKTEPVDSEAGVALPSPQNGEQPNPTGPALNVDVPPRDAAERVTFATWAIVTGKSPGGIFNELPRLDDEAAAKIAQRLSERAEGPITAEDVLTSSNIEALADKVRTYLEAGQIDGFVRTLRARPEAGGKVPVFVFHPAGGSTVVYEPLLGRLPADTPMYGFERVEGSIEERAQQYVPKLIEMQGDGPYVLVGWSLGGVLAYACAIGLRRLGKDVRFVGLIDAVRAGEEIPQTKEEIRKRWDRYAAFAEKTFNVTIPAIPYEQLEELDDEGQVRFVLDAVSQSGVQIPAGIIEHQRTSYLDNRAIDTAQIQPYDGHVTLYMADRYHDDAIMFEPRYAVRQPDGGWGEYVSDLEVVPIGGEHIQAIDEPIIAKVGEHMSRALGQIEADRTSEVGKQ
UniProt A4I591, 1-473: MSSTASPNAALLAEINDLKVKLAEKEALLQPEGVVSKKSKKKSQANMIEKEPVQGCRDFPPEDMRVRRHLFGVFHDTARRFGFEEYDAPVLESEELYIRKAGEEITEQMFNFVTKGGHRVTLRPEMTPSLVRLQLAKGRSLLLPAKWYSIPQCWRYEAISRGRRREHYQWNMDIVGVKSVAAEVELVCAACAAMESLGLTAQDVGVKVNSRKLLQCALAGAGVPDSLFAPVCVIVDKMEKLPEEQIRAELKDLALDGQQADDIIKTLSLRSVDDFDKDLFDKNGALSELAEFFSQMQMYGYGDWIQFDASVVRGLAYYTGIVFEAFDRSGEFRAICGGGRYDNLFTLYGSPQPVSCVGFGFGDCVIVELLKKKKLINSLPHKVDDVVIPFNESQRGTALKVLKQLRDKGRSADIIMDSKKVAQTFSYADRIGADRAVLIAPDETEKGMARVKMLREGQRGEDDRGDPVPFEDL
UniProt P9WNZ1, whole entry: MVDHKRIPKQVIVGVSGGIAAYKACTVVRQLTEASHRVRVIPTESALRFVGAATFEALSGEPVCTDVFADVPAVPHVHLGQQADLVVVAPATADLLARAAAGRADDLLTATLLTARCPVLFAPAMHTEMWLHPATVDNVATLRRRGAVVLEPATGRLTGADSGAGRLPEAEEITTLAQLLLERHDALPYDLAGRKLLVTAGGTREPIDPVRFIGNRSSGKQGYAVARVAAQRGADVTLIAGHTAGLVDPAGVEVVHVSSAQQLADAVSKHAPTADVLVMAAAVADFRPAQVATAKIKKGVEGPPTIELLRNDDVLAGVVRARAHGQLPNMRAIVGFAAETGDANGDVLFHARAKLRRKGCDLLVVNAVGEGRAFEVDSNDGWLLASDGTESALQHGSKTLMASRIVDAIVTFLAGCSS

Measurements from “University of Dundee, Small-Polar-MMV Screening Library” (2021), ChEMBL document CHEMBL3988442.

Pks13 thioesterase: 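Polyketide synthase Pks13, Mycobacterium tuberculosis (UniProt I6X8D2). Enzyme assay of the thioesterase domain of polyketide synthase 13; the read-out is not stated. Tested at 30 µM. Higher reads as stronger inhibition (inferred from which compounds were picked for retests). Size under these conditions: about 67,000 compounds, about 300 of them at 50% or above in at least one test.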
LiHisRS: 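Enzyme assay of histidyl-tRNA synthetase; the read-out is not stated. Target: Histidine-tRNA ligase, Leishmania infantum (UniProt A4I591). Compounds at 30 µM. The record gives no direction; compounds that gave an IC50 in retests scored well above the rest, so higher reads as stronger inhibition. The assay is labelled LdHisRS but filed under L. infantum. Of about 69,000 compounds tested this way, about 410 (0.6%) reached 50% or more in at least one test.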
CoaBC: 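Coenzyme A biosynthesis protein CoaBC, Mycobacterium tuberculosis (UniProt P9WNZ1). Enzyme assay of CoaBC with a phosphate dye (Biomol Green) read at 650 nm. Tested at 30 µM. Higher reads as stronger inhibition, judged from the few compounds that gave an IC50. Most strong results did not repeat in a second test. Of about 67,000 compounds tested this way, about 40 (0.06%) reached 50% or more in at least one test.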

Results are given as percent effect.
The record does not define 0% and 100%; most values in the screen are far below 50% and negative numbers occur (in some assays of this library far below -100).
This is an unselected part of the compounds tested.
A dash means the value is not listed here; it may have been measured.

SMILES | Pks13 thioesterase | LiHisRS | CoaBC
CC1CS(=O)(=O)CCN1Cc1ccccc1OCC(F)(F)F (configuration not stated) | -13.51 | 8.219 | 4.382
CCOCC(O)CN1CCN(C(=O)c2ccncc2)CC1 (configuration not stated) | -2.876 | 23.29 | 0.641
N#CC1C(=O)Nc2c(cnn2C2CCCC2)C12CCCCC2 (configuration not stated) | -13.27 | 17.54 | 7.258
COc1cc(CCC(=O)NC(C)C(=O)O)ccc1OCC(F)(F)F (configuration not stated) | - | 0.8772 | -4.042
CN(Cc1nncn1C)C(=O)c1cc(COc2ccccc2F)[nH]n1 | 0.01266 | 9.804 | 2.577
Cc1cnn(CC(C)NCc2ccc(S(C)(=O)=O)cc2)c1 (configuration not stated) | -5.929 | 18.92 | 5.222
CN(C(=O)c1ccccn1)c1nnc(C2CCOC2)s1 (configuration not stated) | 12.08 | 5.594 | 10.65
CC(C)(O)CN1CCN(C(=O)COC2CCCCC2)CC1 | -5.565 | 8.602 | -3.44
Cn1nc(COc2cncnc2)c2c1CCN(Cc1ccccn1)C2 | 14.83 | -5.263 | -1.426
CN(C(=O)c1ccccn1)c1nc2c(s1)CCc1c-2cnn1C | -16.82 | 102.8 | -5
Cc1nc(CC(=O)N2CCN(C)CC2c2ccccc2)cs1 (configuration not stated) | -28.69 | 19.74 | -1.935
O=C(Cc1ccc2c(c1)OCC2)Nc1nc(C(F)(F)F)n[nH]1 | 0.09228 | 19.57 | 0.2421
CN1CCCCC1c1ncc2c(n1)CCN(CCCc1ccccc1)C2 (configuration not stated) | -26.15 | 0 | 1.611
CCN(C)c1ccc(C(=O)NCCCc2ccccn2)cn1 | - | 2.564 | 2.213
O=C(Cc1csc(-c2ccoc2)n1)NCCCN1CCCCC1 | -10.34 | 21.43 | -6.762
Cc1nsc(N2CCN(C(=O)Nc3cccc(C#N)c3)CC2)n1 | -20.62 | 10.53 | -2.419
CCS(=O)(=O)c1ncc(CN2CCOCC2)n1CCCc1ccccc1 | - | -8.511 | -0.9926
Cc1nnc(SCCC(=O)N(C)Cc2ccc(F)cc2Cl)[nH]1 | 2.078 | 1.333 | 0
O=C(CCOc1ccccc1F)N1CCCC1Cn1cccn1 (configuration not stated) | 2.445 | 4.464 | 5.747
CC(C)c1n[nH]c(C2CN(Cc3nnc(C4CC4)o3)CCO2)n1 (configuration not stated) | 27.4 | -7.865 | 1.542
Cc1cnn(CCNCc2ccc(C#N)cc2F)c1 | 2.838 | 15.38 | 8.094
O=C(Nc1cn[nH]c1)c1ccncc1 | -25.74 | 14.29 | 2.662
CN(Cc1nnc2n1CCC2)C(=O)Cc1ccc2c(c1)CCC2 | -1.294 | 11.4 | 4.075
CC1CN(CC(=O)N2CCCC2)CCN1c1ccc2nncn2n1 (configuration not stated) | -3.503 | 15.09 | 7.368
O=C(c1ccc(=O)[nH]n1)N1CCCC1CCc1ccccc1 (configuration not stated) | -35.11 | 11.11 | 5.511
O=C(NC1(c2nc(C3CC3)no2)CCCCC1)c1cccnc1O | -38.31 | 16.95 | 3.89
COc1cc(Cl)ccc1CNC(=O)N1CCC(n2cncn2)CC1 | -9.017 | 7.018 | -2.609
O=C(CCCn1cncn1)N1CCC2(CCCN(CC3CC3)C2=O)C1 (configuration not stated) | -10.49 | -2.778 | 2.778
Cc1ccccc1Cn1cnc2oc(C)c(C(=O)O)c2c1=O | -12.17 | 19.47 | 4.403
O=C(NCc1ccccn1)c1cncc(C2CCCN2)n1 (configuration not stated) | 1.27 | 2.837 | 2.564
CSCc1cccc(S(=O)(=O)NCCCN2CCOCC2)c1 | -11.51 | 23.58 | -10
O=C(O)c1cc2c(nc1-c1ccncc1)CCN(C1CCOC1)CC2 (configuration not stated) | 6.764 | -0.885 | 4
COCC(NC(=O)NCc1sccc1C)c1ccco1 (configuration not stated) | -37.85 | 9.948 | -3.043
O=C1N(c2cccc(F)c2)Cc2nc(=O)[nH]n21 | -26.67 | 0 | -1.071
CNc1ccnc(N2CC[C@@](O)(C3CCOCC3)[C@H](C)C2)n1 | -10.9 | -5.051 | -0.2415
O=C(Nc1ccc(Cl)cn1)C1CCCN(CCc2ccncc2)C1 (configuration not stated) | 0.4812 | 12.82 | -2.521
COc1ccc(NC(=O)N2CCC(c3noc(C)n3)CC2)cc1C | -1.544 | 2.667 | -0.8264
COCCN(CC(C)C)c1cc(C)ncn1 | 9.517 | 7.937 | 4.538
OC(CNc1ccncn1)CN1CCCCCC1 (configuration not stated) | -17.2 | 6.557 | 6.34

For reference, 5 entries once more:

{"smiles": "N#CC1C(=O)Nc2c(cnn2C2CCCC2)C12CCCCC2", "stereo": "configuration not stated", "Pks13 thioesterase": -13.27, "LiHisRS": 17.54, "CoaBC": 7.258}
{"smiles": "Cc1nc(CC(=O)N2CCN(C)CC2c2ccccc2)cs1", "stereo": "configuration not stated", "Pks13 thioesterase": -28.69, "LiHisRS": 19.74, "CoaBC": -1.935}
{"smiles": "O=C(NC1(c2nc(C3CC3)no2)CCCCC1)c1cccnc1O", "Pks13 thioesterase": -38.31, "LiHisRS": 16.95, "CoaBC": 3.89}
{"smiles": "CC(C)(O)CN1CCN(C(=O)COC2CCCCC2)CC1", "Pks13 thioesterase": -5.565, "LiHisRS": 8.602, "CoaBC": -3.44}
{"smiles": "CC(C)c1n[nH]c(C2CN(Cc3nnc(C4CC4)o3)CCO2)n1", "stereo": "configuration not stated", "Pks13 thioesterase": 27.4, "LiHisRS": -7.865, "CoaBC": 1.542}